In paper PMC7016760:
No constants are given. Whether binding was seen depends on the method and setting. Binding seen in cells or lysates may run through a third protein. Some binding calls cover weakened binding; strength is not graded here.

Target: heat shock protein 90α (human (endogenous in H1299)) (UniProt P07900)
Assay: co-IP; Hsp90α precipitated with its antibody and protein A Sepharose beads from lysates of H1299-WT, AMPKα1 KD and AMPKα1 OV cells treated with or without metformin; at least 12 h at 4 °C; lysis buffer 150 mM NaCl, 20 mM Tris, 0.5% NP40, phosphatase and protease inhibitors; PKCγ detected by western blot

In the case of “protein kinase Cγ (from UniProt P05129 1-697) (enzyme)”, the binding is reported as “binds”.
